Measured data: PubChem BioAssay AID1259308 (NCATS, 2017)
This is a random part of about 59,000 reagents. Over the whole deposit, about 1,510 (2.6%) got an active call. 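Calls use total luciferase alone and ignore viability, so some active siRNAs may act by altering cell number.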 A number with no mark means an inactive call. The numbers tell different reagents against one gene apart. Further read-outs or replicates are left out here.

- Assay: 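Knock-downs that increase output of a recombinant reporter protein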 (primary screen)
- System: human HEK293 embryonic kidney cells stably expressing firefly luciferase (HEK-CMV-Luc2-Hygro)
- Knock-down reagent: single siRNA against human genes, 0.8 pmol siRNA per well
- Time to read-out: 72 h
- Measured: 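Reporter luminescence and viable-cell signal on separate replicate plates, given as percent of non-targeting control and median/MAD z-scores, plus per-cell luciferase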
- Direction: total luciferase, z-score: higher = more reporter protein produced
- Hit rule: 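An siRNA counts as active if its total luciferase robust z-score exceeds 3; genes with two or more such siRNAs out of three were retested with fresh siRNAs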
- Meaning of the calls: active = raised luciferase; inactive = no rise

no.	Gene	reagent no.	total luciferase, z-score
1	PLPPR2	1	-1.54
2	PLPPR2	2	-0.161
3	PLPPR2	3	-1.02
4	ZNF766	1	0.144
5	ZNF766	2	-0.328
6	ZNF766	3	0.0396
7	EVA1A	1	0.29
8	EVA1A	2	0.684
9	EVA1A	3	-0.562
10	POMP	1	0.571
11	POMP	2	-0.149
12	POMP	3	0.821
13	SLC24A2	1	0.141
14	SLC24A2	2	-1.11
15	SLC24A2	3	1.37
16	WSB2	1	-1.55
17	WSB2	2	-0.48
18	WSB2	3	2.29
19	TUFT1	1	-0.0422
20	TUFT1	2	-0.843
21	TUFT1	3	-0.752
22	ZNF404	1	0.112
23	ZNF404	2	-0.527
24	ZNF404	3	4.14 (active)

An excerpt taken from the entries so far, for reference:
no.	Gene	reagent no.	total luciferase, z-score
6	ZNF766	3	0.0396
7	EVA1A	1	0.29
